Literature values, collected in patent publication US8088775B2, “Pharmaceutical composition for treating hair loss” (priority 2004, dated 2012).
At least one structure is not confirmed: it was looked up by name or label, or the drawing left a doubt.

System: hair loss
Conditions: young people, people having oily hair or the whirl of hair on the head fallen out; cited from earlier work

Nc1cc(N2CCCCC2)nc(N)[n+]1[O-] [Minoxidil, 6-(1-piperidinyl-2,4-pyrimidineamine-3-oxide)]
Effectiveness when applied externally: 20 ?30
